The experiment can be described thus: qHTS Assay to Find Inhibitors of Chronic Active B-Cell Receptor Signaling. The conditions noted are these: ABC-DLBCL IkBa-CBG/CBR reporter, luminescence ratio (green luciferase fused to IkBa over red control in TMD8 lymphoma cells), 4 h. The procedure, abridged: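 Compounds up to 46 uM were incubated four hours with TMD8 cells whose green CBG68 luciferase is fused to IkappaBalpha; red CBR luminescence normalised the signal, and concentration-effect curves were fitted to fusion, red and ratio data.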
On the technique in general: Quantitative high-throughput screening tests each substance at several concentrations.

Where [1] appears, read: measured here: CBR red luminescence, cell number.
The mark [2] stands for this setting: measured here: IkBa-CBG green luminescence.

Some of the results follow. These are further read-outs of the screen, such as a control signal, another cell line or another target. No call is given for them. Most of these compounds were active or inconclusive in the main read-out, so they are no random draw. Words in brackets tell the shape of the fitted curve; partial curves, single points and poor fits give uncertain potencies.

As to `Cc1c(Cl)cccc1NC(=O)CCC(=O)c1cccs1`, the AC50 (usually the concentration giving half of the maximal activity seen) under setting [1] is 35.5 µM [rising, partial curve, poor fit].

Turning to `CC(C)NC(=O)CCS(=O)(=O)c1cccc2nonc12`, the AC50 under setting [1] was 6.51 µM [rising, single point].

Turning to `COc1ccc(S(=O)(=O)N2N=C(c3ccc(NS(C)(=O)=O)cc3)CC2c2ccco2)cc1` (configuration not stated), the AC50 under setting [1] is 35.5 µM [falling, single point].

As for `Cc1[nH]n(-c2ccc([N+](=O)[O-])cc2)c(=O)c1C=NCCN1CCN(C(=O)c2ccc(Br)cc2)CC1`, under setting [1], the AC50 is 5.8 µM [falling, full curve, poor fit].

As to `COC(=O)CSc1nc(N)c(C#N)c(C(C)C)c1C#N`, under setting [1], the AC50 is 0.794 µM [falling, full curve, poor fit].

On to `O=C(Nc1ccc(N2CCCCC2)cc1)c1ccc([N+](=O)[O-])o1`, for which the AC50 under setting [1] was 3.16 µM [rising, partial curve, poor fit].

`CN(C)S(=O)(=O)c1cccc(NC(=O)C(c2ccccc2)c2ccccc2)c1`: the AC50 under setting [1] was 35.5 µM [falling, single point].

As for `COc1ccccc1/C=C(\NC(=O)c1ccc(OC)c(OC)c1)C(=O)Nc1cccc([N+](=O)[O-])c1`, under setting [1], the AC50 is 2.31 µM [rising, single point].

As for `CCCc1ccc2oc(C(=O)N3CCCC3)c(C)c2c1`, under setting [1], the AC50 is 2.82 µM [rising, partial curve, poor fit].

On to `Cc1cccc(C)c1-n1c(C)nn(-c2ncc(C(F)(F)F)cc2Cl)c1=O`, for which the AC50 under setting [1] was 35.5 µM [rising, single point].

`CCOC(=S)SCC(=O)Nc1nc(-c2ccc(Br)cc2)cs1`: the AC50 under setting [2] is 4.61 µM [falling, partial curve, poor fit].

Consider `Cc1cc(/C=C2\SC(=S)NC2=O)c(C)n1-c1cccc(O)c1`, for which the AC50 under setting [1] is 7.94 µM [rising, partial curve, poor fit].

For the compound `CC1(C)COC(Cn2c3ccccc3c3ccccc32)O1` (configuration not stated), the AC50 was 12.6 µM [rising, single point] under setting [1] and 17.8 µM [falling, single point] under setting [2].

In the case of `CCCCSc1nnc2nc(C)cc(C)n12`, under setting [1], the AC50 was 23.1 µM [rising, partial curve, poor fit].

For the compound `O=S(=O)(c1ccc(NC(=S)NN=C2CCCCC2)cc1)N1CCOCC1`, the AC50 is, setting by setting: under setting [1], 22.4 µM [rising, single point]; under setting [2], 25.1 µM [falling, single point].

In the case of `C=CCn1c(SCC(=O)Nc2cc(Cl)ccc2C(=O)O)nc2sc(C)c(C)c2c1=O`, under setting [1], the AC50 is 0.82 µM [falling, full curve].

For the compound `CS(=O)(=O)N1CCN(CC2CC3C=CC2C3)CC1` (configuration not stated), the AC50 under setting [1] is 0.058 µM [rising, full curve, poor fit].

Take `O=S(=O)(/N=C(/Nc1cccc2ccccc12)c1ccccc1)c1ccc(Br)cc1`: under setting [1], the half-maximal activity concentration (AC50) was 15.8 µM [falling, partial curve, poor fit].

`O=C(NC(CC(=O)N1CCN(c2ccccc2O)CC1)c1ccccc1)c1ccccc1Cl` (configuration not stated): under setting [1], the AC50 was 29.1 µM [rising, partial curve, poor fit].

Consider `CC(=O)c1cccc(NC(=O)CSc2nc(=O)n(Cc3ccccn3)c3c2CCC3)c1`, for which the AC50 under setting [1] is 4.61 µM [falling, full curve, poor fit].

Take `COc1ccc2c(c1)c(C(C)=O)c(C)n2C`: the AC50 under setting [1] was 3.16 µM [rising, single point].

Consider `O=C(CSc1ccccn1)Nc1cccc(NC(=O)CSc2ccccn2)n1`, for which the AC50 under setting [1] was 5.8 µM [rising, partial curve, poor fit].

On to `Cc1cc(C(=O)CSc2nnc(C3COc4ccccc4O3)n2C)c(C)n1-c1ccc(F)cc1` (configuration not stated), for which the AC50 under setting [1] is 32.6 µM [falling, single point].

With `COc1ccc(CC(=O)Nc2cccc(-c3ccc4nnc(C)n4n3)c2)cc1OC`, the AC50 under setting [1] is 3.16 µM [rising, single point].

For `CCCn1cnc2cc(NC(=O)c3cccs3)ccc21`, under setting [1], the AC50 was 2.24 µM [falling, full curve].

Consider `COC(=O)c1ccc(NC(=O)c2c(NCc3ccc(OC)c(OC)c3)sc3c2CCCC3)cc1`, for which, under setting [1], the AC50 was 7.94 µM [falling, partial curve].

As to `O=C(Nc1ccc2nsnc2c1)C1CC1`, the AC50 under setting [1] was 35.5 µM [falling, single point].

`CCOc1ccccc1OCC(=O)NN1Cc2ccccc2C1=N`: the AC50 under setting [1] was 7.31 µM [falling, partial curve].

For `O=C(CSc1nc2cc([N+](=O)[O-])ccc2n1-c1ccccc1)NCc1ccc2c(c1)OCO2`, the AC50 under setting [1] is 0.92 µM [falling, full curve, poor fit].

As for `COc1ccccc1N(CC(=O)NCCc1ccccc1)C(=O)CCC(=O)Nc1ccccn1`, under setting [1], the AC50 was 14.1 µM [falling, single point].

Consider `COc1ccc(C2=CC(=O)C[C@H](c3ccc(OC)c(OC)c3)C2)cc1`, for which the AC50 under setting [1] is 1.16 µM [rising, full curve, poor fit].

With `O=C1NC2=C(CCc3ccccc32)C(c2ccc(Br)cc2)N1` (configuration not stated), the AC50 under setting [1] was 14.6 µM [rising, partial curve, poor fit].

`O=Cc1ccc(-c2cccc(C(=O)O)c2)o1`: under setting [1], the AC50 was 14.1 µM [falling, single point].

On to `Cc1cccn2c(=O)c3cc(C(=O)N4CCCCC4)sc3nc12`, for which, under setting [1], the AC50 is 11.2 µM [falling, single point].

Turning to `COc1ccc(S(=O)(=O)N2CCN(C)CC2)cc1C`, the AC50 under setting [1] is 16.4 µM [rising, single point].

For the compound `COc1ccc(/C=N/NC(=O)c2cc(O)c(O)c(O)c2)cc1Cn1cc([N+](=O)[O-])cn1`, under setting [1], the AC50 is 11.2 µM [falling, partial curve, poor fit].

For `COc1cccc(/C=C2\SC(=O)N(CCC(=O)N3CCCCC3CCO)C2=O)c1` (configuration not stated), the AC50 under setting [1] is 14.1 µM [falling, partial curve, poor fit].

Turning to `CCOc1ccc(CCNC(=O)CN2C(=O)NC3(CCc4ccccc43)C2=O)cc1OCC` (configuration not stated), the AC50 under setting [1] was 8.2 µM [rising, partial curve, poor fit].

Regarding `O=C(CN1CC[n+]2c(-c3ccccc3)csc21)c1ccc(Br)cc1`, under setting [1], the AC50 is 3.98 µM [falling, full curve, poor fit].

Turning to `COC(=O)CN1C(=S)N(c2ccc(Cl)cc2)C(=O)C1CC(=O)Nc1ccc(F)cc1` (configuration not stated), the AC50 under setting [1] is 16.4 µM [falling, single point].
